# Laboratory results as given in publication doi:10.1101/575910 (bioRxiv, 2019).
# Protein sequences, listed by entry. Tags and fused reporters are not part of them. Lines headed by an entry give the natural chain unless they say otherwise; changes in a name come on top. Chains listed by the source or under a name are the forms on record and can include a tag or linker. Residues count along the entry.
# UniProt Q802Y8, residues 8-401: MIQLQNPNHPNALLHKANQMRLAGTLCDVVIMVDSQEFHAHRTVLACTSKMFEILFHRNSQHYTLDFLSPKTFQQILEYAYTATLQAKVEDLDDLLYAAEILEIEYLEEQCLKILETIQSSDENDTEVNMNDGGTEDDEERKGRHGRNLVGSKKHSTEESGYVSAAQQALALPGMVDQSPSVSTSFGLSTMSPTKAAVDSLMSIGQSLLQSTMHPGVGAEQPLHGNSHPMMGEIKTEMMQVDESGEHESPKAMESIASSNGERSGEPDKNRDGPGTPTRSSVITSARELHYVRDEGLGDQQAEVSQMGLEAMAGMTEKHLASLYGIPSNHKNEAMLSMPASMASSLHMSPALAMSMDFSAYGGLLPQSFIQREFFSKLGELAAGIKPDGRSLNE
# N-terminal region of Cul3 (Cul3a residues 1-379) (F6NVK8, form named): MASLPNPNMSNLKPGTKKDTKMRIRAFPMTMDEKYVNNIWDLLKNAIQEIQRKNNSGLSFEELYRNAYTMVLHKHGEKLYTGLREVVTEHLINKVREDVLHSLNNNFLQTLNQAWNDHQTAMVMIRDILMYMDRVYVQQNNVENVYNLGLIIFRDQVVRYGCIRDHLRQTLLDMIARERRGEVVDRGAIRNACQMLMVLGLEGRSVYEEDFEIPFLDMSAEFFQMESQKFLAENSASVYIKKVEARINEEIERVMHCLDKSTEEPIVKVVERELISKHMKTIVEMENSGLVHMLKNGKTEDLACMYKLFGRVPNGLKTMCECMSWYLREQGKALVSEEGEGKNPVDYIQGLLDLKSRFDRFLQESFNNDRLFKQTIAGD
# These are yes or no findings as the source states them, for the method shown. Some results given as binding are weak or reduced against the parent protein; the word gives no strength.
# Biological target: Plzf ΔZF (Plzfa residues 8-401) (zebrafish) (UniProt Q802Y8)
# Experiment: MST
substance,measurement,value
N-terminal region of Cul3 (Cul3a residues 1-379) (from UniProt F6NVK8 1-379) (domain or fragment),binding,binds
